From the supplement of paper PMC10849652
Some of the results follow.

Amino acid sequences for entries named in this document (tags omitted). A change or cut given only in a name is not applied to a line headed by its entry.
UniProt Q9H6Y2: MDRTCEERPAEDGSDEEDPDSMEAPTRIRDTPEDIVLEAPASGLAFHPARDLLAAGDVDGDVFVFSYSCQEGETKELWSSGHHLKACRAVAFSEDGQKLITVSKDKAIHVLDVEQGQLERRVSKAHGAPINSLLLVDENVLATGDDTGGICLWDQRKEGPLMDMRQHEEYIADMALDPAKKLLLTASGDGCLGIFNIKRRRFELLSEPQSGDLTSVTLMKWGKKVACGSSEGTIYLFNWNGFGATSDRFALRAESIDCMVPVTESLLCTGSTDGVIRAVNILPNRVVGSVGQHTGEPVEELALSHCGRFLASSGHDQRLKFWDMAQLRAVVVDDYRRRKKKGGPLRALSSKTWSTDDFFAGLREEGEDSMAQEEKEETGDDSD
UniProt Q9UNX4: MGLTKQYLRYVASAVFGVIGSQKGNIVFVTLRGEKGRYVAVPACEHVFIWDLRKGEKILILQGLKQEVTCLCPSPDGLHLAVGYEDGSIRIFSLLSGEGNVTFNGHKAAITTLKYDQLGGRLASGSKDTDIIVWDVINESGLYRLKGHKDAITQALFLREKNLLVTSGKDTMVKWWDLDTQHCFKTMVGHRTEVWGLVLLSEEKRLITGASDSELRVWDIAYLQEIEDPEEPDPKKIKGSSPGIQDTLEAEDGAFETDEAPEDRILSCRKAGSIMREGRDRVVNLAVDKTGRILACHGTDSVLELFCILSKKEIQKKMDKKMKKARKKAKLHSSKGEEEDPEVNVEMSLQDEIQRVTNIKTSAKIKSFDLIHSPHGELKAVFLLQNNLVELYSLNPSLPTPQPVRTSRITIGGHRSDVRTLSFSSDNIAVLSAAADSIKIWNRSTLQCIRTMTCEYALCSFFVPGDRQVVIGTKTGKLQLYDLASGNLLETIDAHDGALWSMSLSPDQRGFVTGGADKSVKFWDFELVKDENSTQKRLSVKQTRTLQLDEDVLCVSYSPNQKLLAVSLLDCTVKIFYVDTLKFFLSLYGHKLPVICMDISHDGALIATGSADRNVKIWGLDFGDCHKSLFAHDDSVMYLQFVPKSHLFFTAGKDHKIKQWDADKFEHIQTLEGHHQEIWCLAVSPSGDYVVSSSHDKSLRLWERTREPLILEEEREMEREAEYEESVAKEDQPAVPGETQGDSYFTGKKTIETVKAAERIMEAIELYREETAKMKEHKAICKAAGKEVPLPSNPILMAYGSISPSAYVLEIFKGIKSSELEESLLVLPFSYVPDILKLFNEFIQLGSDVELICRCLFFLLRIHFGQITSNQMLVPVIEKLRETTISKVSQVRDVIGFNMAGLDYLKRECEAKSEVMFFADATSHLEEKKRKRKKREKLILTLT
UniProt Q14119: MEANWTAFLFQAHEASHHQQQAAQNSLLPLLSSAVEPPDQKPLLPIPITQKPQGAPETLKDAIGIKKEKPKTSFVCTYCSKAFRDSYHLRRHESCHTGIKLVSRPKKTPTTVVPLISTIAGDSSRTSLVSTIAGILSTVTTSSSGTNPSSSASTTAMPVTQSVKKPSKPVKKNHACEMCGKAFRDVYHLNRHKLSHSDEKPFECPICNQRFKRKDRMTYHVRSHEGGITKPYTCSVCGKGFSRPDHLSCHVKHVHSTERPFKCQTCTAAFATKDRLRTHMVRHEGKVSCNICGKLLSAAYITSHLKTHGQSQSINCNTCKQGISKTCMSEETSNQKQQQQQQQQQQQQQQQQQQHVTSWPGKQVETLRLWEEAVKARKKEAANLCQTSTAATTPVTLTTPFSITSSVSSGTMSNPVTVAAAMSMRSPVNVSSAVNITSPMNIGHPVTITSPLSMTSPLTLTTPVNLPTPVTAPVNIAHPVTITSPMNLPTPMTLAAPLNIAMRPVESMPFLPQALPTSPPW
UniProt A5D8V6: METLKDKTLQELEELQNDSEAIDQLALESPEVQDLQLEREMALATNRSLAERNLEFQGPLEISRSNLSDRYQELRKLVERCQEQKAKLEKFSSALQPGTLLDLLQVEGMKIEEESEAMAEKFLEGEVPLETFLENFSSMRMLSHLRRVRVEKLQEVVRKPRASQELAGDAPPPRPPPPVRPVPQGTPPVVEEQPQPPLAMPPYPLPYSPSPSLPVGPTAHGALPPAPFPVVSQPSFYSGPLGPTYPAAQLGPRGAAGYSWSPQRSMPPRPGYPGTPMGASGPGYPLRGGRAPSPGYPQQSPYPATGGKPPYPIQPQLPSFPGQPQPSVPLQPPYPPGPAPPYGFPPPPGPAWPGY
UniProt Q5THJ4: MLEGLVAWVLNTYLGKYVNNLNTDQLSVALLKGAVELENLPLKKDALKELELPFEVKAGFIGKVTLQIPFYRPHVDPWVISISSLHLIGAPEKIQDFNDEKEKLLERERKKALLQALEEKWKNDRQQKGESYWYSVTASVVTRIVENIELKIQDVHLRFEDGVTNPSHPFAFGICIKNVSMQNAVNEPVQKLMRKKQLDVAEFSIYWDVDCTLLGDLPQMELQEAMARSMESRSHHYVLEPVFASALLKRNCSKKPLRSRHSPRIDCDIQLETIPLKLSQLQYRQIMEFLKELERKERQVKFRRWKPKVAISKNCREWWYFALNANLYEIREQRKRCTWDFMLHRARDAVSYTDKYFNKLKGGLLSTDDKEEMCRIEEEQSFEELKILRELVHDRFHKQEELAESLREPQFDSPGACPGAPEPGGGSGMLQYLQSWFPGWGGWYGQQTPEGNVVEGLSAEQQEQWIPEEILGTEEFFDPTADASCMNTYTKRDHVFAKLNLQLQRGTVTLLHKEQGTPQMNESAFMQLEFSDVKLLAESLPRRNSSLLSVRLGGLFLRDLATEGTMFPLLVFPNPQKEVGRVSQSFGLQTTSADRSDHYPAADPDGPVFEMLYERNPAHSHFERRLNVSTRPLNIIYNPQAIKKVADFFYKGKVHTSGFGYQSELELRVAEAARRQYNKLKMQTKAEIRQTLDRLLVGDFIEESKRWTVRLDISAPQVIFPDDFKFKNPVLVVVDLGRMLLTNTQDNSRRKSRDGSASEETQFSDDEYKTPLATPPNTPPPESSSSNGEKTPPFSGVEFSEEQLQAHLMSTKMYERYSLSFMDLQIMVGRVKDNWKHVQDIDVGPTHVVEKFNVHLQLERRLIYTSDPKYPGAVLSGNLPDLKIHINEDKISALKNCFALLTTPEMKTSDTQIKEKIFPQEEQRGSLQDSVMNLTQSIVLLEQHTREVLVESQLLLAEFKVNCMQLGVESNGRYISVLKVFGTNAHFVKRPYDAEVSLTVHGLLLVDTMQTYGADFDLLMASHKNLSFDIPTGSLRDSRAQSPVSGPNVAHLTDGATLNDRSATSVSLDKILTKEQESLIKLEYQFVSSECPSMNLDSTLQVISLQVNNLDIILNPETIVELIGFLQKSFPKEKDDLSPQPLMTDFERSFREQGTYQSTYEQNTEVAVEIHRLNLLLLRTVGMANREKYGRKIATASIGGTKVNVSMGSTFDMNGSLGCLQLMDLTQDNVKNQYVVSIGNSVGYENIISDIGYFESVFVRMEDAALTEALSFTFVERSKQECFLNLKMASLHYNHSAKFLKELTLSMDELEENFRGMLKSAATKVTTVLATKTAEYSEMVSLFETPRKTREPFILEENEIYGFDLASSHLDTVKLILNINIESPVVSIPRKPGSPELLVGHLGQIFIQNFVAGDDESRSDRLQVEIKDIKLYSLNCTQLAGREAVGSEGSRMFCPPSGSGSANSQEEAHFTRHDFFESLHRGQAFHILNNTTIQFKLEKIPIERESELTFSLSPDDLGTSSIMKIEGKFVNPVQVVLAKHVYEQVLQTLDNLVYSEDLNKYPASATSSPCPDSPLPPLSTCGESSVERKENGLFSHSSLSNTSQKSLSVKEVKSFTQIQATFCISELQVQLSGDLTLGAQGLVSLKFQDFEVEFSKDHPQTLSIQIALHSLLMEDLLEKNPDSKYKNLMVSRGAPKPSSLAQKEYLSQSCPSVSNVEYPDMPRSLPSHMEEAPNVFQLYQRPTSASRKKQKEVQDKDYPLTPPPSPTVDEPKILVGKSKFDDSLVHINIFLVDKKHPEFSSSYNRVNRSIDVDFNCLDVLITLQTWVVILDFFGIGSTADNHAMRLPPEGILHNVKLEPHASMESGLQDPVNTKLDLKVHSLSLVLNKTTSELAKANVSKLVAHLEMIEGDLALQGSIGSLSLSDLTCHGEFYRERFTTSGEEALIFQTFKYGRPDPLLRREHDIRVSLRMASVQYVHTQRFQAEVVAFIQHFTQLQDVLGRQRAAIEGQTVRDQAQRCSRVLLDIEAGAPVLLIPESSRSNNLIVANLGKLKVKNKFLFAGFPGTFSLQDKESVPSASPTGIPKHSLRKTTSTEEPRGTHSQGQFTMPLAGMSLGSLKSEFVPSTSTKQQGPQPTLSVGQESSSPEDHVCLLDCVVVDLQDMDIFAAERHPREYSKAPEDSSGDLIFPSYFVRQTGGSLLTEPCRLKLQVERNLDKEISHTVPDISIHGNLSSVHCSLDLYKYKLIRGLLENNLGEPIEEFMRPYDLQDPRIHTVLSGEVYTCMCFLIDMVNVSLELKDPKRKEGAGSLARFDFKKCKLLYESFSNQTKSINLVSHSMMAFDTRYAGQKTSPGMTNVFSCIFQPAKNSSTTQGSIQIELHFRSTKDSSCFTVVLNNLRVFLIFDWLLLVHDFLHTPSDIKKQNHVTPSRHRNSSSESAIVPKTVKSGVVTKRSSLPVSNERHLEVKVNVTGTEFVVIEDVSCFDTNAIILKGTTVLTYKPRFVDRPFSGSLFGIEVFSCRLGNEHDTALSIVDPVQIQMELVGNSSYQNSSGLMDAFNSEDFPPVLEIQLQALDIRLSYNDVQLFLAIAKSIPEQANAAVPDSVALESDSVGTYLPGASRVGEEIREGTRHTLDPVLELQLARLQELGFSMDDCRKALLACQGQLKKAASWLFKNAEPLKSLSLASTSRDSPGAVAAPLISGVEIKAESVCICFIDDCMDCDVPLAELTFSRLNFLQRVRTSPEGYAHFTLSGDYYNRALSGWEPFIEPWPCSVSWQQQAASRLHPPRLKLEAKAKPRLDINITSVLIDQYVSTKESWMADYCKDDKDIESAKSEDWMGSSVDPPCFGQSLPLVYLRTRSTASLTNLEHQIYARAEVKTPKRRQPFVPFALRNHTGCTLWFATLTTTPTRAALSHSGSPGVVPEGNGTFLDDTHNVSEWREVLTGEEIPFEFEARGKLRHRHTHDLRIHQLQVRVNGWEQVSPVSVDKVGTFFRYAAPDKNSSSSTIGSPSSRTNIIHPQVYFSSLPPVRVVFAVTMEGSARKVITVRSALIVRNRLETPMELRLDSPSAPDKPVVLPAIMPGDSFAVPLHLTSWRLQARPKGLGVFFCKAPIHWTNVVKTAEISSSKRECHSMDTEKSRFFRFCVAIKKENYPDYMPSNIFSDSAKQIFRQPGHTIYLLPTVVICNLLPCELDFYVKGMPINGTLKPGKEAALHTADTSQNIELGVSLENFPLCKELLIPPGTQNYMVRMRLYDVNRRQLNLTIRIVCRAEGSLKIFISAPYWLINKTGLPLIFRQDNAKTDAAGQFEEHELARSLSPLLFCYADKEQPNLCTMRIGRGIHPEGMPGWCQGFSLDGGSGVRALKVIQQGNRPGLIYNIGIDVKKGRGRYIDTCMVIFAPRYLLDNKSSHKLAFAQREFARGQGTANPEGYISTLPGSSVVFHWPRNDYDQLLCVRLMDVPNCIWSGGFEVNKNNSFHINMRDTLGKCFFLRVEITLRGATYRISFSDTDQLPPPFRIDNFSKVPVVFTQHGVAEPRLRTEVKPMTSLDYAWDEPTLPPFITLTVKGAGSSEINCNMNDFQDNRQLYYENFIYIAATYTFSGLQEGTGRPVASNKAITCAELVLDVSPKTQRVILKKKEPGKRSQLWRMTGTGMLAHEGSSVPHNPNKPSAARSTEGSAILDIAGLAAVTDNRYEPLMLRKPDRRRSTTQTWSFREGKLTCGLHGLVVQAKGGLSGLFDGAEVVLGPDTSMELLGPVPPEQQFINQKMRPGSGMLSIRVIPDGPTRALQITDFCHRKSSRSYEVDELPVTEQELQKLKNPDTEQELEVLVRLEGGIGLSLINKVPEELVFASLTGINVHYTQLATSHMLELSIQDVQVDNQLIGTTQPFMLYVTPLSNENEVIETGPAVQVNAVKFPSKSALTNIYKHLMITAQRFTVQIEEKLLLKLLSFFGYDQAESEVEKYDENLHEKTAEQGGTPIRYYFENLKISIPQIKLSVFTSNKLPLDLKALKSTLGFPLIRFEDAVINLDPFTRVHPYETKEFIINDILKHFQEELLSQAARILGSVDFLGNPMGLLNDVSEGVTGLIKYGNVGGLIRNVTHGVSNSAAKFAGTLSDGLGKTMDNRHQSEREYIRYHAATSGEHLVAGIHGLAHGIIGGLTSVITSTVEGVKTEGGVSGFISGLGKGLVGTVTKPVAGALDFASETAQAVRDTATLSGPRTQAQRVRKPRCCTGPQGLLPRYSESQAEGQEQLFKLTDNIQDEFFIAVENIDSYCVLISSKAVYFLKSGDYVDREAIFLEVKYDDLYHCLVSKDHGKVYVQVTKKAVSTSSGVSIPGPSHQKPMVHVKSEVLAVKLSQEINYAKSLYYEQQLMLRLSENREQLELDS

Columns and labels:
Test in all cases: log2 fold change, soluble protein after heating vs DMSO (PISA); higher = thermal stabilisation; K562 cells, 10 uM, 30 min; active = over 0.2 and 3.5 SD of the protein, either way, in both replicates (recomputed)
[1] = compound: CC[C@@H]1C(=O)N(C)c2cnc(Nc3ccc(C(=O)NC4CCN(C)CC4)cc3OC)nc2N1C1CCCC1
Summary of the method: (§1)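 Soluble protein was quantified by TMTpro 16plex LC-MS/MS after channel sums were equalised. It was obtained as the supernatant after 21,000xg for 90 min from pooled aliquots of K562 cells (2×10^6 cells/mL, 10 μM compound, 30 min) heated for 3 min across 48°C-58°C and extracted in PBS with 0.5% NP-40 at 4°C. Thermal stability values are relative to control samples and come from duplicates. They are given as log2 fold changes.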

volasertib = compound: CC[C@@H]1C(=O)N(C)c2cnc(Nc3ccc(C(=O)N[C@H]4CC[C@H](N5CCN(CC6CC6)CC5)CC4)cc3OC)nc2N1C(C)C [volasertib]
Summary of the method: as §1

[2] = compound: CC[C@H](C)N1C=C(C2=C(C=C(C=C21)C3=CN=C(C=C3)N4CCNCC4)C(=O)NCC5=C(C=C(NC5=O)C)C)C
Summary of the method: as §1

epoxomicin = compound: CC[C@H](C)[C@@H](C(=O)N[C@@H]([C@@H](C)O)C(=O)N[C@@H](CC(C)C)C(=O)[C@]1(CO1)C)NC(=O)[C@H]([C@@H](C)CC)N(C)C(=O)C [epoxomicin]
Summary of the method: as §1

[3] = compound: CCn1c(C(=O)N(C2CC2)C2CC2)cc2c3c(ncn3C)c(Nc3cc(C)n(C)n3)nc21
Summary of the method: as §1

[4] = compound: CCn1cc(-c2ccnc3[nH]c(-c4cccc(CN(C)C)c4)cc23)c(-c2ccc(NC(=O)N(C)C)cc2)n1
Summary of the method: as §1

[5] = compound: CN(C)CC(=O)Nc1ccc2[nH]c(=O)c3ccccc3c2c1
Summary of the method: as §1

rosiglitazone = compound: CN(CCOC1=CC=C(C=C1)C[C@H]2C(=O)NC(=O)S2)C3=CC=CC=N3 (racemic) [rosiglitazone]
Summary of the method: as §1

[6] = compound: CN1C2=C(C3=C1C(=O)N(N=C3)CC4=CC(=CC=C4)N)SC(=C2)S(=O)C
Summary of the method: as §1

[7] = compound: CN1CCC(CNc2ccc3ncc(-c4cccc(OC(F)(F)F)c4)n3n2)CC1
Summary of the method: as §1

saracatinib = compound: CN1CCN(CCOc2cc(OC3CCOCC3)c3c(Nc4c(Cl)ccc5c4OCO5)ncnc3c2)CC1 [saracatinib]
Summary of the method: as §1

sotrastaurin = compound: CN1CCN(c2nc(C3=C(c4c[nH]c5ccccc45)C(=O)NC3=O)c3ccccc3n2)CC1 [sotrastaurin]
Summary of the method: as §1

alvocidib = compound: CN1CC[C@H](c2c(O)cc(O)c3c(=O)cc(-c4ccccc4Cl)oc23)[C@H](O)C1 [alvocidib]
Summary of the method: as §1

Tubastatin A = compound: CN1CCc2c(c3ccccc3n2Cc2ccc(C(=O)NO)cc2)C1 [Tubastatin A]
Summary of the method: as §1

[8] = compound: CNC(=O)C1=CC=CC=C1NC2=NC(=NC=C2Cl)NC3=C(C=C(C=C3)N4CCOCC4)OC
Summary of the method: as §1

defactinib = compound: CNC(=O)c1ccc(Nc2ncc(C(F)(F)F)c(NCc3nccnc3N(C)S(C)(=O)=O)n2)cc1 [defactinib]
Summary of the method: as §1

rucaparib = compound: CNCc1ccc(-c2[nH]c3cc(F)cc4c3c2CCNC4=O)cc1 [rucaparib]
Summary of the method: as §1

[9] = compound: CNc1nc(-c2ccc3c(N)n[nH]c3c2)cc(N2C[C@@H](C(=O)NC3CCCCC3)CC[C@H]2C)n1
Summary of the method: as §1

encorafenib = compound: COC(=O)N[C@@H](C)CNc1nccc(-c2cn(C(C)C)nc2-c2cc(Cl)cc(NS(C)(=O)=O)c2F)n1 [encorafenib]
Summary of the method: as §1

[10] = compound: COC(=O)[C@H](CCSC)NC(=O)C1=C(C=C(C=C1)NC[C@H](CS)N)C2=CC=CC=C2
Summary of the method: as §1

Measured: log2 fold change

WDR55 (UniProt Q9H6Y2)
inactive: [1] -0.013 | volasertib 0.021 | [2] 0 | epoxomicin 0.034 | [3] 0.003 | [4] -0.037 | [5] 0.034 | rosiglitazone 0.008 | [6] -0.048 | [7] 0.003 | saracatinib 0.04 | sotrastaurin 0.037 | alvocidib 0.026 | Tubastatin A -0.025 | [8] -0.019 | defactinib -0.079 | rucaparib 0.047 | [9] -0.033 | encorafenib 0.014 | [10] 0.027

VRK3 (UniProt Q8IV63)
inactive: [1] 0.084 | volasertib 0.027 | [2] 0.073 | epoxomicin 0.031 | [3] 0.004 | [4] -0.095 | [5] 0.034 | rosiglitazone 0.004 | [7] -0.049 | sotrastaurin -0.037 | alvocidib 0 | Tubastatin A -0.029 | [8] 0.031 | defactinib -0.18 | rucaparib -0.23 | encorafenib 0.034 | [10] 0.024

VPS35 (UniProt Q96QK1)
inactive: [1] -0.037 | volasertib -0.118 | [2] 0.037 | epoxomicin 0.04 | [3] -0.007 | [4] -0.09 | [5] -0.009 | rosiglitazone 0.028 | [6] -0.062 | [7] -0.16 | saracatinib 0.014 | sotrastaurin -0.01 | alvocidib -0.047 | Tubastatin A -0.008 | [8] -0.003 | defactinib -0.041 | rucaparib -0.067 | [9] -0.017 | encorafenib 0.015 | [10] 0.016

VMA21 (UniProt Q3ZAQ7)
inactive: [1] 0.03 | volasertib 0.01 | [2] -0.111 | epoxomicin 0.113 | [3] 0.032 | [4] -0.157 | [5] 0.047 | rosiglitazone -0.048 | [7] 0.236 | sotrastaurin 0.036 | alvocidib -0.021 | [8] 0.072 | defactinib -0.022 | rucaparib 0.018 | encorafenib -0.108 | [10] 0.219

Copied from the listing (2 entries):
VRK3 (UniProt Q8IV63)
inactive: [1] 0.084 | volasertib 0.027 | [2] 0.073 | epoxomicin 0.031 | [3] 0.004 | [4] -0.095 | [5] 0.034 | rosiglitazone 0.004 | [7] -0.049 | sotrastaurin -0.037 | alvocidib 0 | Tubastatin A -0.029 | [8] 0.031 | defactinib -0.18 | rucaparib -0.23 | encorafenib 0.034 | [10] 0.024

VPS35 (UniProt Q96QK1)
inactive: [1] -0.037 | volasertib -0.118 | [2] 0.037 | epoxomicin 0.04 | [3] -0.007 | [4] -0.09 | [5] -0.009 | rosiglitazone 0.028 | [6] -0.062 | [7] -0.16 | saracatinib 0.014 | sotrastaurin -0.01 | alvocidib -0.047 | Tubastatin A -0.008 | [8] -0.003 | defactinib -0.041 | rucaparib -0.067 | [9] -0.017 | encorafenib 0.015 | [10] 0.016

(further entries)

WRNIP1 (UniProt Q96S55)
inactive: [1] -0.123 | volasertib -0.327 | [2] 0.283 | epoxomicin 0.15 | [3] -0.093 | [4] -0.058 | [5] 0.096 | rosiglitazone 0.081 | [6] 0.035 | [7] -0.371 | saracatinib -0.09 | sotrastaurin -0.197 | alvocidib -0.183 | Tubastatin A 0.107 | [8] -0.133 | defactinib -0.188 | rucaparib -0.03 | [9] -0.007 | encorafenib 0.158 | [10] -0.057

WRAP53 (UniProt Q9BUR4)
inactive: [1] 0.123 | volasertib 0.025 | [2] -0.034 | epoxomicin -0.073 | [3] 0.031 | [4] -0.03 | [5] -0.034 | rosiglitazone 0.016 | [6] 0.065 | [7] 0.067 | saracatinib 0.011 | sotrastaurin 0.019 | alvocidib 0.05 | Tubastatin A -0.002 | [8] -0.019 | defactinib 0.154 | rucaparib 0.08 | [9] 0.035 | encorafenib 0.034 | [10] -0.01

VPS36 (UniProt Q86VN1)
inactive: [1] -0.018 | volasertib -0.08 | [2] 0.046 | epoxomicin 0.05 | [3] -0.019 | [4] -0.043 | [5] 0.003 | rosiglitazone 0.06 | [6] -0.062 | [7] 0.007 | saracatinib 0.032 | sotrastaurin -0.001 | alvocidib -0.076 | Tubastatin A -0.018 | [8] -0.023 | defactinib -0.038 | rucaparib -0.044 | [9] -0.009 | encorafenib 0.003 | [10] -0.011

WIZ (UniProt O95785)
inactive: [1] 0.045 | volasertib 0.016 | [2] 0.044 | epoxomicin -0.026 | [3] 0.001 | [4] -0.022 | [5] -0.007 | rosiglitazone 0.058 | [6] 0.022 | [7] -0.126 | saracatinib -0.059 | sotrastaurin -0.007 | alvocidib -0.026 | Tubastatin A 0.003 | [8] -0.108 | defactinib -0.036 | rucaparib 0.056 | [9] 0.003 | encorafenib 0.019 | [10] -0.04

WDR3 (UniProt Q9UNX4)
inactive: [1] 0.093 | volasertib 0.04 | [2] 0.118 | epoxomicin -0.245 | [3] -0.013 | [4] 0.087 | [5] -0.167 | rosiglitazone 0.024 | [6] 0.247 | [7] 0.275 | saracatinib -0.16 | sotrastaurin -0.092 | alvocidib 0.269 | Tubastatin A 0.223 | [8] -0.063 | defactinib 0.347 | rucaparib 0.302 | [9] 0.119 | encorafenib 0.172 | [10] -0.078

VEZF1 (UniProt Q14119)
inactive: [1] 0.191 | volasertib 0.262 | [2] -0.025 | epoxomicin -0.138 | [3] 0.056 | [4] 0.067 | [5] -0.14 | rosiglitazone -0.077 | [6] 0.322 | [7] 0.137 | saracatinib 0.142 | sotrastaurin -0.072 | alvocidib 0.286 | [8] 0.078 | defactinib 0.105 | rucaparib 0.232 | [9] -0.072 | encorafenib 0.182 | [10] 0.088

WDR26, A0A499FIZ0
inactive: [1] -0.028 | volasertib -0.075 | [2] 0.022 | epoxomicin -0.021 | [3] 0.028 | [4] 0.014 | [5] -0.023 | rosiglitazone -0.025 | [6] 0.028 | [7] 0.006 | saracatinib 0.001 | sotrastaurin -0.045 | alvocidib 0.027 | Tubastatin A -0.012 | [8] 0.063 | defactinib -0.018 | rucaparib -0.011 | [9] -0.038 | encorafenib 0.025 | [10] 0.013

VPS37C (UniProt A5D8V6)
inactive: [1] 0.01 | volasertib -0.264 | [2] 0.042 | epoxomicin -0.014 | [3] -0.016 | [4] 0.015 | [5] -0.016 | rosiglitazone 0.031 | [6] -0.041 | [7] 0.036 | saracatinib 0 | alvocidib -0.105 | Tubastatin A 0.005 | [8] -0.053 | defactinib -0.032 | rucaparib -0.035 | [9] -0.05 | encorafenib 0.057 | [10] 0.067

VPS13D (UniProt Q5THJ4)
inactive: [1] -0.06 | volasertib -0.115 | [2] -0.069 | epoxomicin -0.049 | [3] 0.011 | [4] -0.045 | [5] -0.084 | rosiglitazone -0.052 | [6] 0.096 | [7] -0.119 | saracatinib -0.169 | sotrastaurin 0.057 | alvocidib 0.151 | Tubastatin A 0.066 | [8] 0.02 | defactinib 0.036 | rucaparib 0.154 | [9] 0.111 | encorafenib 0.248 | [10] 0.044

VPS13A (UniProt Q96RL7)
inactive: [1] 0.037 | volasertib -0.031 | [2] 0.008 | epoxomicin -0.012 | [3] -0.02 | [4] 0.015 | [5] 0.023 | rosiglitazone 0 | [6] -0.037 | [7] -0.032 | saracatinib 0.07 | sotrastaurin 0.05 | alvocidib 0.023 | Tubastatin A -0.015 | [8] -0.014 | defactinib -0.007 | rucaparib -0.029 | [9] -0.044 | encorafenib 0.01 | [10] -0.021

WDR1 (UniProt O75083)
inactive: [1] 0.004 | volasertib 0.014 | [2] 0.05 | epoxomicin 0.027 | [3] -0.023 | [4] -0.098 | [5] 0.015 | rosiglitazone 0.038 | [6] -0.091 | [7] -0.034 | saracatinib 0 | sotrastaurin -0.019 | alvocidib -0.067 | Tubastatin A -0.003 | [8] 0.027 | defactinib -0.037 | rucaparib -0.023 | [9] 0.017 | encorafenib 0.029 | [10] -0.036

WDR44 (UniProt Q5JSH3)
inactive: [1] 0.012 | volasertib -0.019 | [2] -0.014 | epoxomicin 0.035 | [3] -0.001 | [4] -0.016 | [5] -0.012 | rosiglitazone 0.011 | [6] -0.056 | [7] -0.012 | saracatinib 0.045 | sotrastaurin 0.014 | alvocidib -0.024 | Tubastatin A -0.012 | [8] -0.027 | defactinib -0.014 | rucaparib -0.005 | [9] -0.004 | encorafenib -0.008 | [10] 0

VDAC3 (UniProt Q9Y277)
inactive: [1] 0.036 | volasertib 0.023 | [2] -0.032 | epoxomicin -0.013 | [3] 0.034 | [4] -0.025 | [5] 0.031 | [6] -0.063 | [7] 0.05 | saracatinib 0.03 | sotrastaurin 0.069 | alvocidib 0 | Tubastatin A -0.028 | [8] 0.001 | defactinib -0.007 | rucaparib -0.002 | [9] -0.037 | encorafenib -0.025 | [10] -0.037
